In patent publication US11492338B2, “Furan surfactant compositions and methods” (SIRONIX RENEWABLES, INC., priority 2020, dated 2022):

Assays:
[1] = Ross Miles foam height, ASTM D1173
[2] = High shear foam height in distilled water, ASTM D319-88
[3] = High shear foam loss in 100 ppm hard water solution
[4] = Emulsion separation time, surfactant solution and soybean oil; conditions: 0.1 wt % surfactant, 20 mL each of surfactant solution and soybean oil
[5] = Stain removal index, hard set blood on cotton fabric; conditions: 1 minute wash, 0.1 wt % surfactant solution at 20° C.
[6] = Table 2, immediately after foam formation
[7] = Table 2, distilled water, after 5 minutes, 13,700 rpm, 0.1 wt % surfactant
[8] = Table 2, distilled water, immediately after foam formation, 13,700 rpm, 0.1 wt % surfactant
[9] = Table 2, percent of high shear foam height lost in 100 ppm hard water solution
[10] = Table 3, immediately after foam formation
[11] = Table 3, first value (immediately after foam formation)
[12] = Table 3, second value (after 5 minutes)

For `CCCCCCCCCCCC(=O)c1cc(S(=O)(=O)O)c(C)o1` [Ca^2+], the “Ross Miles Foam Height” value ([1]; Table 2, after 5 minutes) was 170 mm, the “Ross Miles Foam Height” value [1, 6] was 180 mm and the “High Shear Foam Height” value [2, 7] was 51 mm. The “High Shear Foam Height” value [2, 8] was 53 mm, the “High Shear Foam Loss” value [3, 9] was 11% and the “Average Emulsion Separation Time, 15 mL” value [4] was over 20 min.

In the case of `CCCCCCCCCCCC(=O)c1cc(S(=O)(=O)[O-])c(C)o1.[Li+]` [Li^+], the “Ross Miles Foam Height” value ([1]; Table 2, after 5 minutes) is reported as 120 mm, the “Ross Miles Foam Height” value [1, 6] is reported as 135 mm and the “High Shear Foam Height” value [2, 7] is reported as 84 mm. For the same compound, the “High Shear Foam Height” value [2, 8] was 85 mm, the “High Shear Foam Loss” value [3, 9] was 28% and the “Average Emulsion Separation Time, 15 mL” value [4] was 3.7 min.

For `CCCCCCCCCCCC(=O)c1cc(S(=O)(=O)[O-])c(C)o1.CCCCCCCCCCCC(=O)c1cc(S(=O)(=O)[O-])c(C)o1.[Mg+2]` [Mg^2+], the “Ross Miles Foam Height” value ([1]; Table 2, after 5 minutes) was 175 mm, the “Ross Miles Foam Height” value [1, 6] was 185 mm and the “High Shear Foam Height” value [2, 7] was 41 mm. The “High Shear Foam Height” value [2, 8] was 43 mm and the “High Shear Foam Loss” value [3, 9] was 16%.

For `CCCCCCCCCCCC(=O)c1cc(S(=O)(=O)O)c(C)o1.N` [NH4^+], the “Ross Miles Foam Height” value ([1]; Table 2, after 5 minutes) was 55 mm, the “Ross Miles Foam Height” value [1, 6] was 75 mm and the “High Shear Foam Height” value [2, 7] was 8 mm. For the same compound, the “High Shear Foam Height” value [2, 8] was 23 mm, the “High Shear Foam Loss” value [3, 9] was 0% and the “Average Emulsion Separation Time, 15 mL” value [4] was 6.1 min.

With `CCCCCCCCCCCC(=O)c1ccc(S(=O)(=O)[O-])o1.[Na+]` [Na^+ OFS-12-1/0] the “Ross Miles Foam Height” value ([1]; Table 3, after 5 minutes) was 112 mm, the “Ross Miles Foam Height” value [1, 10] was 138 mm and the “High Shear Foam Height” value [2, 11] was 70 mm. For the same compound, the “High Shear Foam Height” value [2, 12] was 65 mm, the “High Shear Foam Loss” value ([3]; Table 3, hard water) was 0^6% and the “Average Emulsion Separation Time, 15 mL” value [4] was 3.6 min. The “Stain Removal Index: Hard Set Blood on Cotton Fabric” value [5] was 20.3.

For `CCCCCCCCCCCC(=O)c1cc(S(=O)(=O)[O-])c(C)o1.[Na+]` [Na^+], the “Ross Miles Foam Height” value ([1]; Table 2, after 5 minutes) was 132 mm, the “Ross Miles Foam Height” value [1, 6] was 134 mm and the “Ross Miles Foam Height” value ([1]; Table 3, after 5 minutes) was 132 mm. The “Ross Miles Foam Height” value [1, 10] was 134 mm, the “High Shear Foam Height” value [2, 7] was 69 mm and the “High Shear Foam Height” value [2, 8] was 71 mm. For the same compound, the “High Shear Foam Height” value [2, 11] was 70 mm, the “High Shear Foam Height” value [2, 12] was 65 mm and the “High Shear Foam Loss” value [3, 9] was 30%. The “High Shear Foam Loss” value ([3]; Table 3, hard water) was 17^ %, the “Average Emulsion Separation Time, 15 mL” value [4] was 4.4 min and the “Stain Removal Index: Hard Set Blood on Cotton Fabric” value [5] was 13.2.

In the case of `CCCCCCCCCCCCOCCOCCOCCOS(=O)(=O)[O-].[Na+]` [SLES, sodium lauryl ether sulfate, reference compound], the “Ross Miles Foam Height” value ([1]; Table 2, after 5 minutes) is reported as 150 mm, the “Ross Miles Foam Height” value [1, 6] is reported as 160 mm and the “High Shear Foam Height” value [2, 7] is reported as 48 mm. For the same compound, the “High Shear Foam Height” value [2, 8] was 50 mm and the “High Shear Foam Loss” value [3, 9] was 42%.
